In PubChem BioAssay (NCATS):
“And” between values parts separate entries of the source, which are not always exact repeats. Equal entries are not always repeated. For part of these data: Most of the hits are listed elsewhere, so they are rarer here than in the full data. Records with an inconclusive call do not appear. This is a selection; strong and weak results do not stand in their true shares. The source made the active and inactive calls. Unless noted, the call rests on the fitted dose curve; in most records, active means well fitted curve in the direction sought with a large enough effect; inconclusive means small, poorly fitted or top-dose-only effect, or another doubt; inactive means no such curve, though single readings can be large; an effect the other way counts as inactive or inconclusive.

Legend:
[1] = qHTS for small molecule inhibitors of Yes1 kinase: Counter Assay (AID 686950); conditions: at 154 µM (top of the series);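 further: no kinase present so only ADP-Glo detection of a fixed ADP amount is tested; luminescence from ADP-Glo reporting ADP in a fixed ATP and ADP mixture; 0% = DMSO wells with ATP plus ADP and -100% = ATP-only wells without ADP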
Method in brief: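 Enzyme-free ADP-Glo interference check: compounds were preincubated 20 min in buffer, then an ATP/ADP mix (0.08 mM ATP, 0.02 mM ADP final) was added for 60 min at room temperature before two-step ADP-Glo luminescence detection.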

[2] = qHTS profiling for inhibitors of Plasmodium falciparum (3D7) proliferation (AID 743322);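 further: infected erythrocytes exposed to compound for 72 h before lysis; 100% = DMSO vehicle wells and 0% = 0.29 µM artemisinin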; conditions: P. falciparum 3D7 proliferation
Method in brief: (§1)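 Erythrocytes infected with P. falciparum (0.3% parasitemia, 2.5% hematocrit) incubated with compounds 72 h at 37 C, 5% CO2. Lysis with saponin/Triton buffer containing SYBR Green I, overnight at room temperature in the dark; DNA fluorescence (485/535 nm) normalised to 0.29 uM artemisinin and DMSO.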

[3] = qHTS profiling for inhibitors of Plasmodium falciparum (DD2) proliferation (AID 743323; call rule not given here); conditions: lower = more inhibition
Method in brief: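 P. falciparum Dd2-infected erythrocytes (0.3% parasitemia, 2.5% hematocrit) exposed 72 h at 37 C, 5% CO2. Lysis with SYBR Green, overnight at room temperature, fluorescence 485/535 nm; normalized to 0.29 uM artemisinin and DMSO.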

[4] = qHTS profiling for inhibitors of Plasmodium falciparum (HB3) proliferation (AID 743324); conditions: Plasmodium falciparum HB3 blood-stage proliferation;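 further: 100% = DMSO vehicle wells and 0% = artemisinin-treated control wells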
Method in brief: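 P. falciparum HB3 grown in erythrocytes (0.3% parasitemia, 2.5% hematocrit final) with compound for 72 h at 37 C, 5% CO2. Parasite DNA detected by SYBR Green after saponin/triton lysis overnight; normalized to 0.29 uM artemisinin and DMSO.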

[5] = qHTS profiling of the MIPE4 collection as inhibitors of Plasmodium falciparum (3D7) proliferation (AID 743344; call rule not given here;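 further: scaled between DMSO vehicle wells and 0.29 µM artemisinin as full inhibition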); conditions: P. falciparum 3D7 in erythrocytes, SYBR Green DNA fluorescence, 72 h; at 28.5 µM (top of the series)
Method in brief: as §1

[6] = qHTS profiling of the MIPE4 collection as inhibitors of Plasmodium falciparum (DD2) proliferation (AID 743345; call rule not given here); conditions: P. falciparum Dd2 in erythrocytes, SYBR Green DNA, 72 h; at 28.5 µM (top of the series)
Method in brief: as §1

[7] = qHTS profiling of the MIPE4 collection as inhibitors of Plasmodium falciparum (DD2) proliferation (Rep 2) (AID 743346; call rule not given here); conditions: P. falciparum Dd2 in erythrocytes, SYBR Green DNA, 72 h; at 28.5 µM (top of the series)
Method in brief: as §1

[8] = qHTS profiling of the MIPE4 collection as inhibitors of Plasmodium falciparum (HB3) proliferation (AID 743347; call rule not given here;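 further: plate controls were DMSO vehicle wells for no effect and artemisinin wells for full effect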); conditions: P. falciparum HB3 in erythrocytes, SYBR Green DNA, 72 h; at 28.5 µM (top of the series)
Method in brief: as §1

[9] = qHTS assay for measurement of the activity of small molecule inhibitors on Zika virus induced Caspase-3 activity in human iPSC derived neural progenitor cells (hNPCs) (AID 1224857); conditions: hNPCs ZIKV-induced caspase-3/7, Caspase-Glo luminescence, 6 h; at 45.7 µM (top of the series); further: % of control where 0% means no effect; nearly all actives have a fitted effect of over 65% in size
Method in brief: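 In medium with heparin 2 ug/ml and cyclopamine 2 uM, hNPCs (350 cells/well) received compound for one hour and then Zika virus at 2 FFU/cell; caspase activity was measured by Caspase-Glo 3/7 luminescence 6 h post-infection.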

[10] = qHTS assay for measurement of the activity of small molecule inhibitors on Zika virus induced Caspase-3 activity in human astrocytoma cells (AID 1224859); conditions: SNB-19 ZIKV-induced caspase-3/7, luminescence, 6 h; at 45.7 µM (top of the series);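 further: plate controls were ZIKV-infected untreated cells for no effect and uninfected cells for full effect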
Method in brief: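 A cell-based luminescent caspase-3/7 assay used SNB-19 cells infected with ZIKV (2 FFU/cell) for 6 h following 1 h compound pretreatment.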

[11] = qHTS Screen of the MIPE 4.0 Collection Against Ewings Sarcoma (RDES) (AID 1259252); conditions: RD-ES Ewing sarcoma viability, CellTiter-Glo, 48 h; further: potency means the concentration at half of the fitted maximal effect; nearly all actives have a fitted effect of over 35% in size
Method in brief: (§2)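 Here, cells in 5% FBS RPMI were exposed for two days (48 h) to compound dilutions added four hours after plating. ATP-based CellTiter-Glo luminescence measured viability, normalized to vehicle and no-cell blanks.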

[12] = qHTS Screen of the MIPE 4.0 Collection Against Ewings Sarcoma (TC71) (AID 1259253); conditions: TC71 Ewing sarcoma viability, CellTiter-Glo, 48 h; further: potency means the concentration at half of the fitted maximal effect; nearly all actives have a fitted effect of over 40% in size
Method in brief: as §2

[13] = qHTS Screen of the MIPE 4.0 Collection Against Ewings Sarcoma (EW8) (AID 1259255); conditions: EW8 Ewing sarcoma viability, CellTiter-Glo, 48 h; further: potency means the concentration at half of the fitted maximal effect; nearly all actives have a fitted effect of over 35% in size
Method in brief: as §2

[14] = qHTS Screen of the MIPE 4.0 Collection Against Ewings Sarcoma (TC32) (AID 1259256); conditions: TC32 Ewing sarcoma viability, CellTiter-Glo, 48 h; further: potency means the concentration at half of the fitted maximal effect; nearly all actives have a fitted effect of over 45% in size
Method in brief: as §2

[15] = qHTS assay to identify small molecule inhibitors of chordoma cells - UCH-1 (AID 1259355); conditions: UCH-1 chordoma viability, CellTiter-Glo, 48 h, combination; further: potency means the concentration at half of the fitted maximal effect; nearly all actives have a fitted effect of over 55% in size
Method in brief: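 Luminescent ATP read-out (CellTiter-Glo, 30min at room temperature) measured viability of UCH-1 cells exposed for 48hr to test drugs at 15 concentrations, co-dosed with a five-agent combination of auranofin, camptothecin, doxorubicin, rubitecan and topotecan.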

[16] = qHTS assay to identify small molecule inhibitors of chordoma cells - UCH-2 (AID 1259356); conditions: UCH-2 chordoma viability, CellTiter-Glo ATP luminescence, 48 h; at 46.1 µM (top of the series); further: on the % scale 0 is the no-effect control and ±100 the full control effect
[17] = Identifying Small Molecule Inhibitors of Pancreatic Cancer Stem Cells (A2780, Spheroid) (AID 1259357); conditions: at 92.2 µM (top of the series);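 further: spheroids pre-formed over 14 days in stem cell medium on hydrogel; compound exposure lasted 48 h before the ATP luminescence read; 100% = DMSO treated cells and 0% = wells without cells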
Method in brief: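 Spheroids grown 14 days in stem cell media on nonadherent hydrogel before screening; cells attached 4 h, then compound exposure 48 h at 37C, 5% CO2. CellTiter-Glo luminescence normalized to DMSO (no inhibition) and no-cell wells (full inhibition).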

[18] = Identifying Small Molecule Inhibitors of Pancreatic Cancer Stem Cells (SN12C, Adherent) (AID 1259358); conditions: viability/growth inhibition;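 further: potency means the concentration at half of the fitted maximal effect; cell survival measured after 48 h of compound exposure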
Method in brief: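 Luminescent ATP readout (CellTiter-Glo) quantifies surviving cells after a 48 h drug incubation. Normalization uses DMSO wells as no inhibition and media-only wells as full inhibition; bortezomib served as positive control.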

[19] = NS1 protein of Zika virus - qHTS assay to identify small molecule inhibitors in human HEK 293 cells (AID 1347053); conditions: HEK293 ZIKV MR766 infection, NS1 TR-FRET, 24 h; at 46.1 µM (top of the series);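 further: plate controls were infected untreated cells for no effect and uninfected cells for full effect; nearly all actives have a fitted effect of over 55% in size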
Method in brief: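 HEK 293 cells pretreated with compound for 1 h, then infected with ZIKV MR766 (MOI 0.5) for 24 h at 37 C. NS1 detected by TR-FRET with two anti-NS1 antibodies; normalized to uninfected (0%) and infected (100%) wells.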

[20] = tested on: Zika virus NS2B-NS3 protease; assay: Primary screen GU AMC qHTS for Zika virus inhibitors (AID 1347154);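 further: 0% = no-inhibitor control and -100% = no-enzyme control; nearly all actives have a fitted effect of over 70% in size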
Method in brief: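 Unlinked Zika NS2B hydrophilic domain/NS3 protease domain noncovalent complex (25 nM final) in 10 mM Tris-HCl pH 8.0, 0.01% Tween 20, with AMC peptide substrate. Fluorescence (ex 340, em 450 nm) change over 15 min, room temperature; percent inhibition fitted to 4-parameter Hill equation.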

[21] = tested on: Zika virus NS2B-NS3 protease (unlinked complex); assay: Primary screen GU Rhodamine qHTS for Zika virus inhibitors: Unlinked NS2B-NS3 protease assay (AID 1347159); conditions: Recombinant ZIKV NS2B-NS3 protease, Rhodamine110 substrate fluorescence; at 107 µM (top of the series); further: on the % scale 0 is the no-effect control and ±100 the full control effect; nearly all actives have a fitted effect of over 60% in size
Method in brief: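 Noncovalent NS2B hydrophilic domain/NS3 protease complex (25 nM final) in 10 mM Tris-HCl pH 8.0, 0.01% Tween 20, preincubated 15 min with compounds (up to 114 microM), then 1.5 microM Rhodamine110 substrate. Fluorescence change over 15 min fitted to 4-parameter Hill.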

[22] = tested on: Zika virus NS2B-NS3 protease (linked construct); assay: Primary screen NINDS Rhodamine qHTS for Zika virus inhibitors (AID 1347160); conditions: purified NS2B-NS3 protease, Rhodamine110 substrate fluorescence; at 57.1 µM (top of the series); further: on the % scale 0 is the no-effect control and ±100 the full control effect; nearly all actives have a fitted effect of over 55% in size
Method in brief: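 Purified NS2B-NS3 protease with the NS2B hydrophilic domain joined by a flexible linker (25 nM) in 10 mM Tris-HCl pH 8.0, 0.01% Tween 20, preincubated 15 min at RT with compound; Rhodamine110 peptide substrate 1.5 µM; fluorescence change over 15 min; 4-parameter Hill fit.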

[23] = qHTS profiling for inhibitors of Plasmodium falciparum proliferation (AID 504749); further: potency means the concentration at half of the fitted maximal effect; nearly all actives have a fitted effect of over 60% in size; conditions: P. falciparum in erythrocytes, SYBR Green DNA, 72 h
Method in brief: (§3)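 P. falciparum-infected erythrocytes (0.3% parasitemia, 2.5% hematocrit final) were exposed to compounds for 72 h at 37 C in 5% CO2, then lysed with SYBR Green buffer overnight at room temperature; parasite DNA fluorescence was normalized to artemisinin and DMSO controls.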

3D7 = assay: as above; conditions: P. falciparum in erythrocytes, SYBR Green DNA, 72 h
Method in brief: as §3

7G8 = assay: as above; conditions: P. falciparum in erythrocytes, SYBR Green DNA, 72 h
Method in brief: as §3

AA1029 = assay: as above; conditions: P. falciparum in erythrocytes, SYBR Green DNA, 72 h
Method in brief: as §3

AS120 = assay: as above; conditions: P. falciparum in erythrocytes, SYBR Green DNA, 72 h
Method in brief: as §3

ATS189 = assay: as above; conditions: P. falciparum in erythrocytes, SYBR Green DNA, 72 h
Method in brief: as §3

ATS95 = assay: as above; conditions: P. falciparum in erythrocytes, SYBR Green DNA, 72 h
Method in brief: as §3

C2A = assay: as above; conditions: P. falciparum in erythrocytes, SYBR Green DNA, 72 h
Method in brief: as §3

CP185 = assay: as above; conditions: P. falciparum in erythrocytes, SYBR Green DNA, 72 h
Method in brief: as §3

CP191 = assay: as above; conditions: P. falciparum in erythrocytes, SYBR Green DNA, 72 h
Method in brief: as §3

CP192 = assay: as above; conditions: P. falciparum in erythrocytes, SYBR Green DNA, 72 h
Method in brief: as §3

CP194 = assay: as above; conditions: P. falciparum in erythrocytes, SYBR Green DNA, 72 h
Method in brief: as §3

CP201 = assay: as above; conditions: P. falciparum in erythrocytes, SYBR Green DNA, 72 h
Method in brief: as §3

CP203 = assay: as above; conditions: P. falciparum in erythrocytes, SYBR Green DNA, 72 h
Method in brief: as §3

CP211 = assay: as above; conditions: P. falciparum in erythrocytes, SYBR Green DNA, 72 h
Method in brief: as §3

CP215 = assay: as above; conditions: P. falciparum in erythrocytes, SYBR Green DNA, 72 h
Method in brief: as §3

O=C(CCCCCCC(=O)Nc1ccccc1)NO
0.142%: activity, percent of control ([3]; at 28.7 µM (top of the series))
inactive: activity change, negative = inhibition [1] -0.712% | activity change, negative = inhibition [9] -10.3% and 24.3% | activity change, negative = inhibition [10] -2.39% and 10.6% | activity change, negative = inhibition [16] -9.44% | viability (percent of control) [17] 107% | activity change, negative = inhibition [19] -1.65% and -18.3% | Potency [20] | activity change, negative = inhibition [21] 0.755% | activity change, negative = inhibition [22] 16.4%
active: Potency [11] 2960 nM | Potency [12] 2960 nM | Potency [13] 2350 nM | Potency [14] 2350 nM | Potency [15] 10000 nM | Potency [18] 34000 nM | Potency ([23]; parasite line A) 891 nM | Potency ([23]; parasite line B) 708 nM | Potency (3D7) 891 nM | Potency (7G8) 316 nM | Potency (AA1029) 501 nM | Potency (AS120) 398 nM | Potency (ATS189) 891 nM | Potency (ATS95) 631 nM | Potency (C2A) 501 nM | Potency (CP185) 794 nM | Potency (CP191) 447 nM | Potency (CP192) 1350 nM | Potency (CP194) 757 nM | Potency (CP201) 1350 nM | Potency (CP203) 849 nM | Potency (CP211) 1070 nM | Potency (CP215) 953 nM
0.0858%: remaining proliferation (% of control), lower = more inhibition ([4]; at 28.7 µM (top of the series))
0.0859%: remaining parasite growth % (stronger effect = lower value) ([2]; at 57.5 µM (top of the series))
7.07%: parasite growth remaining, % of DMSO control (lower = more inhibition) [6]
5.19%: parasite growth, % of DMSO control [5]
0.4%: remaining proliferation (% of control), lower = more inhibition ([4]; at 57.5 µM (top of the series))
4.44%: growth, % of control [8]
-1.09%: remaining parasite growth % (stronger effect = lower value) ([2]; at 28.7 µM (top of the series))
0.337%: activity, percent of control ([3]; at 57.5 µM (top of the series))
15.5%: parasite growth, % of control (lower = inhibition) [7]
